Reference: US20130237684A1
No constants are given. Whether binding was seen depends on the method and setting. Some entries that bind do so weakly or less than the wild type.

Protein sequences, listed by entry. Tags and fused reporters are not part of them. Lines headed by an entry give the natural chain unless they say otherwise; changes in a name come on top.
UniProt P02751: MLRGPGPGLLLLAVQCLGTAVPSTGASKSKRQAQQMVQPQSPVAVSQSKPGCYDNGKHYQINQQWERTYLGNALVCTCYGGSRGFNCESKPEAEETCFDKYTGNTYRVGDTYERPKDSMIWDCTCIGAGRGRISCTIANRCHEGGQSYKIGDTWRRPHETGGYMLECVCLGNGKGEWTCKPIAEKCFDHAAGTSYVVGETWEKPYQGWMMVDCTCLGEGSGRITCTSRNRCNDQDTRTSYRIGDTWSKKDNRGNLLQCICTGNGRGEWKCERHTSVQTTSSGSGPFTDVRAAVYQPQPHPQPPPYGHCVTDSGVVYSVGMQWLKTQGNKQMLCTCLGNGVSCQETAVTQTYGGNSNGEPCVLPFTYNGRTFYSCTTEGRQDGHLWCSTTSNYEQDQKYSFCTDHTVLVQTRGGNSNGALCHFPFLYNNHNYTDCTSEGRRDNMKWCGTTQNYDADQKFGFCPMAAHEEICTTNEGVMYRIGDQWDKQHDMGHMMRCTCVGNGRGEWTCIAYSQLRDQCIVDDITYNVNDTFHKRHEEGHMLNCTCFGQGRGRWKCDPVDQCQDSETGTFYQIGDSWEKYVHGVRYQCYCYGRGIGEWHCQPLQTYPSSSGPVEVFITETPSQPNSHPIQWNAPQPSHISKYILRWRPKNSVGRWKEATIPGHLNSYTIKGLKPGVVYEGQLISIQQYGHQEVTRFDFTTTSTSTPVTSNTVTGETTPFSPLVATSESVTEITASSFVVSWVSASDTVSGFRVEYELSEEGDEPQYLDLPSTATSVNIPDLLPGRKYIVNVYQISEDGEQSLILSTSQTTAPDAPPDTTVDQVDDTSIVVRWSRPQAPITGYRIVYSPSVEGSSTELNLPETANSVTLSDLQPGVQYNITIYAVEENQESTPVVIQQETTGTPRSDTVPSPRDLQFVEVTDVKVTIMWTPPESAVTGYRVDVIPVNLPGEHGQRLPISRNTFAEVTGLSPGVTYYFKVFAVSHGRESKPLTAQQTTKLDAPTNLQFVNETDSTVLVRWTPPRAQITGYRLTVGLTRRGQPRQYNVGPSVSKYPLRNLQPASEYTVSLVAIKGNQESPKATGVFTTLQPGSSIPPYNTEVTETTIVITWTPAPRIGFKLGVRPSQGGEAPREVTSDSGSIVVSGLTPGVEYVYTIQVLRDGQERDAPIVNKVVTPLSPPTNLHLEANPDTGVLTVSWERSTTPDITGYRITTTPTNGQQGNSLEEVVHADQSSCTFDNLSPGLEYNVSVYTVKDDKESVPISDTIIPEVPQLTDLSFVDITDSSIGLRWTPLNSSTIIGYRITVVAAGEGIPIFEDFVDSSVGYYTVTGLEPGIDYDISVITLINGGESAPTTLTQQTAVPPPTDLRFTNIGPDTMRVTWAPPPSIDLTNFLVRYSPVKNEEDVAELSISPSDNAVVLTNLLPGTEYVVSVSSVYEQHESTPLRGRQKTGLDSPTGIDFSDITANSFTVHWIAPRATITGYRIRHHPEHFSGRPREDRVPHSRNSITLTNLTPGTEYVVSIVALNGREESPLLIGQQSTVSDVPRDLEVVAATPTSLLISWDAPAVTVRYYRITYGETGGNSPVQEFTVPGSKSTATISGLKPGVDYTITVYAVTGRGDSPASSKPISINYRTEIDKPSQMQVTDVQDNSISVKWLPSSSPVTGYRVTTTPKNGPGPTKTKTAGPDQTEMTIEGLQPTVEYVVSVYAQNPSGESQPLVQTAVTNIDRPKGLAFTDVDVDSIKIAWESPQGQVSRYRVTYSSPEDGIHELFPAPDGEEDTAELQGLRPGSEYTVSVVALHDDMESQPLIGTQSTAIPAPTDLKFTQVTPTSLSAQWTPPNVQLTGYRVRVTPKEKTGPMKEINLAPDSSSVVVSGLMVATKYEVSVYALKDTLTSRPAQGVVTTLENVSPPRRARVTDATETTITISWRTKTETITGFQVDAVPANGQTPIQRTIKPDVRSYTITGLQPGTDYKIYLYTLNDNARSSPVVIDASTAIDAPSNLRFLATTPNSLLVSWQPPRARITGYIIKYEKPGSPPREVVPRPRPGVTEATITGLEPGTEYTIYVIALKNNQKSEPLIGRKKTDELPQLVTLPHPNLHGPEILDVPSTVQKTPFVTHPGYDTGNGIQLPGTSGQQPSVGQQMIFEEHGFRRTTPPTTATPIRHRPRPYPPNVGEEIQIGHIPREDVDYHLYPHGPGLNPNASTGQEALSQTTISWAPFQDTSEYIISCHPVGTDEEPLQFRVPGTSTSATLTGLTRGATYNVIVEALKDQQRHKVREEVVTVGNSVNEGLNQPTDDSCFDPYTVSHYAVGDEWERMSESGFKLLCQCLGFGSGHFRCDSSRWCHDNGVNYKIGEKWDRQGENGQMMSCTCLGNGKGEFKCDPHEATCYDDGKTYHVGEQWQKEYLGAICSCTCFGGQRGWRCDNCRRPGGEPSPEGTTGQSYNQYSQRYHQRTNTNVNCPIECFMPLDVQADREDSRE

Experiments:
[1] = molecular target: LexA-C terminal fragment of FNfn10 (DEFG strands) fusion protein, wild-type FG loop (human) (UniProt P02751); test: yeast two-hybrid
[2] = molecular target: LexA-C terminal fragment of monobody fusion protein with the FG loop of monobody pYT0319 (human); test: yeast two-hybrid
[3] = molecular target: LexA-C terminal fragment of monobody fusion protein with the FG loop of monobody pYT4699 (human); test: yeast two-hybrid
[4] = molecular target: LexA-C terminal fragment of FNfn10 (DEFG strands) fusion protein, wild-type FG loop (human) (UniProt P02751); test: yeast two-hybrid, β-galactosidase agarose overlay
[5] = molecular target: LexA-C terminal fragment of monobody fusion protein with the FG loop of monobody pYT0319 (human); test: yeast two-hybrid, β-galactosidase agarose overlay
[6] = molecular target: LexA-C terminal fragment of monobody fusion protein with the FG loop of monobody pYT4699 (human); test: yeast two-hybrid, β-galactosidase agarose overlay
[7] = molecular target: LexA-C terminal fragment of FNfn10 (DEFG strands) fusion protein, wild-type FG loop (human) (UniProt P02751); test: yeast two-hybrid, β-galactosidase agarose overlay of mated strains
[8] = molecular target: LexA-C terminal fragment of monobody fusion protein with the FG loop of monobody pYT0319 (human); test: as above
[9] = molecular target: LexA-C terminal fragment of monobody fusion protein with the FG loop of monobody pYT4699 (human); test: as above
[10] = molecular target: Aga2-C-FN3 (residues 43-94)-V5-His fusion protein displayed on yeast (human); test: yeast surface display, flow cytometry with anti-FLAG (PE) and anti-V5 (FITC)
[11] = molecular target: Aga2-C-FN3 (residues 43-94)-V5-His fusion protein displayed on yeast (human); test: flow cytometry of mated yeast: surface C-FN3 by anti-V5/FITC, captured secreted N-FN3 by anti-FLAG/PE

Measured: binding

FLAG tag-N terminal fragment of FNfn10 (ABC strands)-NLS-B42 fusion protein (from UniProt P02751 1538-1579)
not listed: [10] | [11]
binds: all other assays above

N-FN3 (residues 1-42) followed by the FLAG tag, secreted from yeast (from UniProt P02751 1538-1579)
binds: [10] | [11]
